Measurements from US20160046678A1 (ZYNGENIA, published 2016).
No constants are given. Whether binding was seen depends on the method and setting. Some binding calls cover weakened binding; strength is not graded here.

These binders were tested against ErbB2 (UniProt P04626) (assay: MRD identification, Example 48).

Binder | binding
WSGYCEMGDHWDYCSGSV [EGB807] | binds
WSGYCEFNGFWAHCGGFI [EGB808] | binds
WSGYCLMKDHWGYCGGWI [EGB809] | binds
WSGYCEFEDHWDYCGNSE [EGB810] | binds
FQGHCALFPTDWICTLKS [EGB811] | binds
WSGYCEFKTHWGHCGNPQ [EGB813] | binds
WSGYCEFKDHWDHCHSSG [EGB814] | binds
WSGYCEKEGYWAHCRGTI [EGB816] | binds
WSGYCEMKGHWAHCGGSP [EGB817] | binds
WSGYCNMGDHWDHCSGSI [EGB818] | binds
WSGYCEFKDHWAHCSGSL [EGB820] | binds
WSGYCEMKGYWDFCGGLI [EGB822] | binds
WSGYCEFQDYWDYCGGSI [EGB823] | binds
WSGYCEMEHGWDYCSGTI [EGB824] | binds
WSGYCEFKDHWDHCGDSE [EGB825] | binds
WSGYCELEDHWAFCGGTI [EGB826] | binds
WSGYCEFKGYWDFCYGSM [EGB827] | binds
WSGYCEGQYFWYHCSGSG [EGB829] | binds
WSGYCEFQDHWDHCFGSS [EGB830] | binds
WSGYCEMNDHWDYCYGPK [EGB831] | binds

Binder | binding
WSGYCEFRDHWDYCGNSY [EGB832] | binds
WSGYCEFKDHWDYCGNSD [EGB834] | binds
WSGYCEFKDHWDFCGGSY [EGB835] | binds
WSGYCQTNDHWDYCSGTI [EGB836] | binds
WSGYCESYDHWYHCGGTL [EGB837] | binds
WSGYCEYEDHWDYCGTWV [EGB838] | binds
WSGYCEMEDRWAYCSGSI [EGB839] | binds
WSGYCEFKDHWDHCGGSL [EGB840] | binds
WSGYCQMKDHWDYCSGSL [EGB845] | binds
WSGYCEGKEHWYQCGGPL [EGB847] | binds
WSGYCEFNDHWAHCHGSP [EGB848] | binds
WSGYCEFKDRWAHCSGSI [EGB849] | binds
WSGYCEFKGYWDHCGSSK [EGB850] | binds
WSGYCEYKDRWAHCRGTM [EGB851] | binds
WSGYCEFKDHWDYCGGSY [EGB852] | binds
WSGYCEMKDHWAHCSGSI [EGB853] | binds
WSGYCEYQDHWAHCGRSM [EGB854] | binds
WSGYCEFSDHWDHCGNSK [EGB855] | binds
WSGYCEMKDHWAHCGGSI [EGB857] | binds

These binders were tested against EGFR (UniProt P00533) (assay: peptide screen, Example 48).

Binder | binding
YAEHCQLFPSDWICSLET [EGA744] | binds
YAEHCAQFPTDWICSLIS [EGA746] | binds
YAQHCYQFPSDWICSLLP [EGA747] | binds
YAEHCRHFWTDWICSLKT [EGA748] | binds
YGEHCRSFPTDWICTLLP [EGA749] | binds
YSTHCRLFPTDWICTLEG [EGA750] | binds
YAEHCWHFPTDWICSLLP [EGA751] | binds
YFEHCRQFPTDWICTLMP [EGA752] | binds
YAEHCRLFPTDWICTIKS [EGA753] | binds
YVEHCWQFPSDWICTLLP [EGA755] | binds
YAEHCWRFPGDWICSLIT [EGA757] | binds
YAEHCRLFPTDWICSLRE [EGA758] | binds
YAEHCSMFPTDWICTLVT [EGA759] | binds
YLQHCLLFPTDWICTLLP [EGA760] | binds
YAEHCTLFPTDWICTLLP [EGA761] | binds
YAEHCWMFPTDWICSLRS [EGA762] | binds
YAEHCWLFPKDWICTLIT [EGA763] | binds
YEEHCWQFPGDWICSLRG [EGA764] | binds
YAEHCRIFPTDWICTLST [EGA765] | binds
YAEHCWQFPSDWICSLIE [EGA766] | binds
YAEHCSHFWTDWICTLST [EGA767] | binds
YAEHCRQFPSDWICTLLS [EGA768] | binds
YAAHCSLFPTDWICTLMP [EGA769] | binds
YAEHCWLFPKDWICTLDM [EGA770] | binds
YAEHCLQFPADWICTLRT [EGA773] | binds
YAGHCALFPSDWICSLLP [EGA774] | binds
YAEHCSYFPTDWICTLRT [EGA775] | binds
YLDHCRLFPTDWICSLLP [EGA776] | binds
YVEHCRLFPCDWICSLMI [EGA777] | binds
YAEHCFQFPHDWICSLMT [EGA779] | binds
